According to the supplement of paper PMC12823440, “Inhibitors supercharge kinase turnover through native proteolytic circuits” (Nature, 2025):
Some of the results follow. Hit calls seldom repeat between salt and free forms of one compound.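 Kinases were expressed as nanoluciferase fusions in K562 cells and luminescence was read every 4 h between 2 and 18 h as percent of control, DMSO set to 100% and a positive control to 0%. A time point counts as decreased when the signal drops significantly (2 sigma). The hit call is the authors' own, does not follow from the count of time points alone, and its rule is not shown.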

By UniProt entry, the sequences of proteins in these tests, tags left out. Where a name states a change or a piece, a line headed by the entry shows the natural chain unless it says otherwise.
UniProt P10398: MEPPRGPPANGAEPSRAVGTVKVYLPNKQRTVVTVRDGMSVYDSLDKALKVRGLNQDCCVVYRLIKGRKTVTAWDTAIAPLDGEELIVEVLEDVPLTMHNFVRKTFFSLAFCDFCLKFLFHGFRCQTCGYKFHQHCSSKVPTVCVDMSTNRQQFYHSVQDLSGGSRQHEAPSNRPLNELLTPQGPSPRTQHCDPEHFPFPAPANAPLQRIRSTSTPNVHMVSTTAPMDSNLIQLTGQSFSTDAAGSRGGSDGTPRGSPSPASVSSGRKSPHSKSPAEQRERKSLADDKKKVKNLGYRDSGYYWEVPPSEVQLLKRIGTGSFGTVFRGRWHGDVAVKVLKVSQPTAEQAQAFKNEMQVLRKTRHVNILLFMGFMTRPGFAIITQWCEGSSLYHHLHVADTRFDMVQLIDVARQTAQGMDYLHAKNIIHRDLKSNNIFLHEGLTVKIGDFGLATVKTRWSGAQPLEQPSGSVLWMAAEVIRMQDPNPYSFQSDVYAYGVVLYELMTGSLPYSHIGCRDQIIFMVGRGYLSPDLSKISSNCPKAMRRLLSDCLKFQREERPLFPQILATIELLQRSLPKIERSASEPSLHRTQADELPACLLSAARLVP
UniProt Q96GD4, whole entry: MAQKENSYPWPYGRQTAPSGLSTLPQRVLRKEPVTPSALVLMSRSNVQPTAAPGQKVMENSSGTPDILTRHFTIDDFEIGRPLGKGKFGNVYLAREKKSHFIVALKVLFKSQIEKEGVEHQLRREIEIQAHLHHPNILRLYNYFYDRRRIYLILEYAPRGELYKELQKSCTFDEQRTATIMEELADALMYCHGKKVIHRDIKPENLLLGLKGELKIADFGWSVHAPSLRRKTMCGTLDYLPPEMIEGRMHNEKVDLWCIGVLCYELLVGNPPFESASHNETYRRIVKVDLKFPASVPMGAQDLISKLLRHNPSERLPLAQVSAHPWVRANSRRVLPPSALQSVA
UniProt Q9UQB9: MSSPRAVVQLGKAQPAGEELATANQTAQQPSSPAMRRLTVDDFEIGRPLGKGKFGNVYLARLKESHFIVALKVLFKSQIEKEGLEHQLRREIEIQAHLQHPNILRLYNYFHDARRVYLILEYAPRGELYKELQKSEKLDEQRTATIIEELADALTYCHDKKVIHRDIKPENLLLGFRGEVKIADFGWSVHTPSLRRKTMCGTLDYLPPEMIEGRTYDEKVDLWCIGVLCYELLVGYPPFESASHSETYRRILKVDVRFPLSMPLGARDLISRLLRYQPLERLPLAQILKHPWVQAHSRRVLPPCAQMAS
UniProt P51451: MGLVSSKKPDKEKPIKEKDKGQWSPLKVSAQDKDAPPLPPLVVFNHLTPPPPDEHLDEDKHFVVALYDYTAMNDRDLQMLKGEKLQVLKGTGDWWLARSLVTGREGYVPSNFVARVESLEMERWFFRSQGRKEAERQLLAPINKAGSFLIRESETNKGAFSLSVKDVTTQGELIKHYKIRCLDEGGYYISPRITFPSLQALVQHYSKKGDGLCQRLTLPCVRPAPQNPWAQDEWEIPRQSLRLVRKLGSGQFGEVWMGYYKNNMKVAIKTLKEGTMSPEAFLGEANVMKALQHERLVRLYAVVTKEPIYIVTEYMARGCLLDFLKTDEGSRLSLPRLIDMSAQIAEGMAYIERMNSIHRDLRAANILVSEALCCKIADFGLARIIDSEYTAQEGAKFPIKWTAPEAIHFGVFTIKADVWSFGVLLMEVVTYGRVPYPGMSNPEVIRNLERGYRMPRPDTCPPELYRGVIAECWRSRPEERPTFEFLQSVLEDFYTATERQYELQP
UniProt P51813: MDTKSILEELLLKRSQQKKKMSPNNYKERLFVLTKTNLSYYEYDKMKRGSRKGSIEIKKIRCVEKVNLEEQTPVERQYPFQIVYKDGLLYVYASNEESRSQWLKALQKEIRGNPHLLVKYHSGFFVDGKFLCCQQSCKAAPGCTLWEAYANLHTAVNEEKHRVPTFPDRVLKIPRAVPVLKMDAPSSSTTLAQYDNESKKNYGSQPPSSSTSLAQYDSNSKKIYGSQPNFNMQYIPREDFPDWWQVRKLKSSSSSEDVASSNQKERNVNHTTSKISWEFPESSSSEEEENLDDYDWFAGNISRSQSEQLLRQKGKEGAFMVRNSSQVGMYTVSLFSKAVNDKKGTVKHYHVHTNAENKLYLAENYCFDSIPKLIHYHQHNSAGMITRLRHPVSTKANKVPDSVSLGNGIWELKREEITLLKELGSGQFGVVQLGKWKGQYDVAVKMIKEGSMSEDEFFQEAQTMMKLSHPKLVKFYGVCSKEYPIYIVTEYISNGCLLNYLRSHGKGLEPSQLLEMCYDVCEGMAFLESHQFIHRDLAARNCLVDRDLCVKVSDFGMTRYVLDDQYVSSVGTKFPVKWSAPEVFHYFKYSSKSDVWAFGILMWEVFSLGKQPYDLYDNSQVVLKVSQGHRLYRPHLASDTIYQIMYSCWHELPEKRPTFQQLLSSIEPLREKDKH
UniProt Q06187: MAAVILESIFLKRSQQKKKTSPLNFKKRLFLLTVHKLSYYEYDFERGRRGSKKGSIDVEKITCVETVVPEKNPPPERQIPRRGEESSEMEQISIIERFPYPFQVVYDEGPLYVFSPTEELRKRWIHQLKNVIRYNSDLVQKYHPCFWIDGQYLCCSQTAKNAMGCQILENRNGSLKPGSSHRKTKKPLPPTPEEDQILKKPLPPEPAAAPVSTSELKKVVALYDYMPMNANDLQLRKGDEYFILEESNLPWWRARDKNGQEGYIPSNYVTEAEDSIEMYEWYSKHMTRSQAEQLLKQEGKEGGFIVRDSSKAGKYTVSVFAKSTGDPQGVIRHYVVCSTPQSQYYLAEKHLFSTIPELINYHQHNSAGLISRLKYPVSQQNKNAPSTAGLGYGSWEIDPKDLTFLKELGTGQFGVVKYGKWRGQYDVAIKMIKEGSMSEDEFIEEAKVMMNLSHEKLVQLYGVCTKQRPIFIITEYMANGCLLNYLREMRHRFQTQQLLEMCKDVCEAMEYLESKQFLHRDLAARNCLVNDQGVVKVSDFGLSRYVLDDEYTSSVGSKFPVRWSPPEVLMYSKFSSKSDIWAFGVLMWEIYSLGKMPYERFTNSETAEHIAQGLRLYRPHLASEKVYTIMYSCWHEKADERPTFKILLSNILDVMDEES
UniProt Q9UQM7, whole entry: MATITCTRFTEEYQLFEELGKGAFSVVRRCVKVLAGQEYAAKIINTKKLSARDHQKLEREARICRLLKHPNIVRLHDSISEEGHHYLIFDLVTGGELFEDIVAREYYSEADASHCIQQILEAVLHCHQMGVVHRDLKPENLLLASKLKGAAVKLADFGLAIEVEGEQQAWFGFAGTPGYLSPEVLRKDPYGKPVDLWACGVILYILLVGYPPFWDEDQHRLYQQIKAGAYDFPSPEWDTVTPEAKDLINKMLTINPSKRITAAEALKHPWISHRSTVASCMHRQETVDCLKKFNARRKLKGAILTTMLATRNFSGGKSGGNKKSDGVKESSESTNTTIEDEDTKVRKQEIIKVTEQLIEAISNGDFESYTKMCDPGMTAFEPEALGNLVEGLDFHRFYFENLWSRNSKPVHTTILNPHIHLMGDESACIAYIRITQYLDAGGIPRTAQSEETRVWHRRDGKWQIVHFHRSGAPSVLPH
UniProt Q15131: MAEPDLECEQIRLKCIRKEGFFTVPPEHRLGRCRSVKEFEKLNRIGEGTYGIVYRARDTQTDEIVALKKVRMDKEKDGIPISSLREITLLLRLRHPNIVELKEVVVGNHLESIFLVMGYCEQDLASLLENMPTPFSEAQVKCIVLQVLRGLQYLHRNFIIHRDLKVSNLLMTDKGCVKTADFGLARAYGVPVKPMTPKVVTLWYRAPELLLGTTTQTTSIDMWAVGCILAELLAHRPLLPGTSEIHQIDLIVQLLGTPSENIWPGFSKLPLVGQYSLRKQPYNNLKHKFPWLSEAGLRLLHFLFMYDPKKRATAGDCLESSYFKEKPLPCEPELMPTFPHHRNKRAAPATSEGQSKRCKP
UniProt Q00526: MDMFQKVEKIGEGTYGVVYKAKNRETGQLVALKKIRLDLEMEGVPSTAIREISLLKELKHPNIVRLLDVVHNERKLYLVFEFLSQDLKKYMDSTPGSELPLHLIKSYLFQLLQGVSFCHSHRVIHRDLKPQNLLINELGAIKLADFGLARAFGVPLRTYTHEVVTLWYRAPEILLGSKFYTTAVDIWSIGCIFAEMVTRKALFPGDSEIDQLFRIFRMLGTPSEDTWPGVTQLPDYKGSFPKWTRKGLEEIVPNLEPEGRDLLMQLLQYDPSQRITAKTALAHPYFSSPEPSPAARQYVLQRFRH
UniProt Q00534, whole entry: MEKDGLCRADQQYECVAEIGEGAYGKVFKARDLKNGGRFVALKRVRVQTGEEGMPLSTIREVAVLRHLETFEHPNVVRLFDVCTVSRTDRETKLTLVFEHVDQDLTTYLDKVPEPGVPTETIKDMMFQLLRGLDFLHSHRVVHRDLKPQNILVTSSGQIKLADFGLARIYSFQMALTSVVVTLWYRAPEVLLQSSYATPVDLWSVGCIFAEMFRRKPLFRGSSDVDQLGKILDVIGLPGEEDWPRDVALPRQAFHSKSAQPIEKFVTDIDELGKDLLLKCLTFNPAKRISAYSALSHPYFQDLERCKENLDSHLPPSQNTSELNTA
UniProt O96017, whole entry: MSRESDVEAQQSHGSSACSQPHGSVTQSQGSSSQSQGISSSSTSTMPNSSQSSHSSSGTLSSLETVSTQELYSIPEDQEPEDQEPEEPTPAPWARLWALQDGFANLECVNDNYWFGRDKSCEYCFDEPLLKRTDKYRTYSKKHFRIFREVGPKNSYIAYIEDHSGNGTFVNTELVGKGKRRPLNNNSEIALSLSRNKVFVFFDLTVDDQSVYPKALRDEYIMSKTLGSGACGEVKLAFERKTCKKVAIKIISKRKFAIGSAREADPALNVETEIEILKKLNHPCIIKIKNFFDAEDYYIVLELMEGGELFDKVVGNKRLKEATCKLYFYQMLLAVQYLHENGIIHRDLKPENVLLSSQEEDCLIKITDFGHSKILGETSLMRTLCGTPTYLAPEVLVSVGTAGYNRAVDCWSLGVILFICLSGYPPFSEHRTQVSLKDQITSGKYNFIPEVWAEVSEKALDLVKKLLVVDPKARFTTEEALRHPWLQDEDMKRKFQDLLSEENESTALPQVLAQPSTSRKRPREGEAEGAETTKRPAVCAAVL
UniProt P07333, whole entry: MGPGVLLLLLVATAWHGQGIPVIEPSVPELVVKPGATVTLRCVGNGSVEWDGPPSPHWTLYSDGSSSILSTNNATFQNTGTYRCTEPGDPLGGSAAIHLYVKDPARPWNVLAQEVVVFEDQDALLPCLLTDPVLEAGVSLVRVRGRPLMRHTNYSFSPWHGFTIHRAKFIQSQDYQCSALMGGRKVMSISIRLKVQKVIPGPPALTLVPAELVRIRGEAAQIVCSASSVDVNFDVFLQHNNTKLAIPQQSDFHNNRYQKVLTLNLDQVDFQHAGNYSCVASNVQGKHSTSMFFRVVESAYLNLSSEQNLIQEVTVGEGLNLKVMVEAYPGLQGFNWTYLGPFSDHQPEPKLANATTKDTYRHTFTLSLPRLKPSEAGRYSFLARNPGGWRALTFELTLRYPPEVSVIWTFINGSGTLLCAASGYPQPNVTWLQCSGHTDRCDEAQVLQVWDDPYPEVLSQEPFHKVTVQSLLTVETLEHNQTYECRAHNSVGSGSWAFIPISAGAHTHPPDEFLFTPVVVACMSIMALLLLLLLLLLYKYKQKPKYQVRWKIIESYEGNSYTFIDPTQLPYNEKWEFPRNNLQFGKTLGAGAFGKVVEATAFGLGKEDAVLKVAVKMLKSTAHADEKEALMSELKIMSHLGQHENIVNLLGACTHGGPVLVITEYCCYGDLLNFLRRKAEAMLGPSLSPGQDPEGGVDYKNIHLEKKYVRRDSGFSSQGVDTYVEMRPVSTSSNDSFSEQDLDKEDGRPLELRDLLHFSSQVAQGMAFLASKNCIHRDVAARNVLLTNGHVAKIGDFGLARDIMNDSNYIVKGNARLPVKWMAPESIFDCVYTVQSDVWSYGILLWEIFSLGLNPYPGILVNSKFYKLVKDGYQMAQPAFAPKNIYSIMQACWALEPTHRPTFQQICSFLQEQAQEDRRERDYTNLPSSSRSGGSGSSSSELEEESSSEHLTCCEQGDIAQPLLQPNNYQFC
UniProt P41240: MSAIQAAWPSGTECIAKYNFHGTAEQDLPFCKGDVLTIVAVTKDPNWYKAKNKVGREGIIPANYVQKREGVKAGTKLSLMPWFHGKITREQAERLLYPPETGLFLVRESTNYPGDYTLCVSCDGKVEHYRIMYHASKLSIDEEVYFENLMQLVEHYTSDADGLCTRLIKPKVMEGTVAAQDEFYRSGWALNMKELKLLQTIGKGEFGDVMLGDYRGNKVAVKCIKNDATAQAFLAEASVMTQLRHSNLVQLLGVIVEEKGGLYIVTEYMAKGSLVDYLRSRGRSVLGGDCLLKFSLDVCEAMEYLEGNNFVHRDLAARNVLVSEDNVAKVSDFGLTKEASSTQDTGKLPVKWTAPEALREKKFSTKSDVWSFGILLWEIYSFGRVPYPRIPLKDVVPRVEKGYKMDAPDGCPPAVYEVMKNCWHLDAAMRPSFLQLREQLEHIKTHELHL

Key:
Assay in all cases: number of time points (of 5) at which kinase-Nluc abundance scored as decreased, DMSO-normalised (count); higher = more persistent destabilization
Settings in all cases: K562; 2-18 h
ALK = ALK (UniProt Q9UM73)
ARAF = ARAF (UniProt P10398)
AURKA = AURKA (UniProt O14965)
AURKB = AURKB (UniProt Q96GD4)
AURKC = AURKC (UniProt Q9UQB9)
BLK = BLK (UniProt P51451)
BMX = BMX (UniProt P51813)
BRAF = BRAF (UniProt P15056)
BRAF_V600E = system: BRAF_V600E
BTK = BTK (UniProt Q06187)
CAMK2A = CAMK2A (UniProt Q9UQM7)
CAMK2G = CAMK2G (UniProt Q13555)
CDK10 = CDK10 (UniProt Q15131)
CDK2 = CDK2 (UniProt P24941)
CDK3 = CDK3 (UniProt Q00526)
CDK5 = CDK5 (UniProt Q00535)
CDK6 = CDK6 (UniProt Q00534)
CHEK2 = CHEK2 (UniProt O96017)
CSF1R = CSF1R (UniProt P07333)
CSK = CSK (UniProt P41240)

Measured: number of time points

O=C1NCCSc2c1sc1ccc(O)cc21 (2.5 µM)
1: BLK | BRAF_V600E
0: all other assays above

O=C(CC(c1ccccc1)C(C(=O)O)C(=O)O)c1ccc(C(F)(F)F)cc1 (stereo not given) (10 µM)
0: all assays above

NC(=O)c1ccc2nc(-c3ccc(C4(N)CCC4)cc3)c(-c3ccccc3)n2n1 (10 µM)
0: all assays above

CC(C)n1nc(C#Cc2ccccc2)c2c(N)ncnc21 (10 µM)
1: AURKA | CSF1R
3: BRAF_V600E
0: all other assays above

CC(C)[C@H](CO)Nc1nc(Nc2ccc(C(=O)O)c(Cl)c2)c2ncn(C(C)C)c2n1 [Purvalanol B] (10 µM)
0: all assays above

COc1cc(OC)c(/C=C/S(=O)(=O)Cc2ccc(OC)c(NCC(=O)O)c2)c(OC)c1 [Rigosertib (sodium)] (10 µM)
3: CSF1R
1: ALK | BLK | BMX | BRAF_V600E
0: all other assays above

Cc1occ2c1C(=O)c1c(O)ccc(O)c1C2 (2.5 µM)
0: all assays above

Cn1cc(-c2ccc3ncc(Cc4ccc5ncccc5c4)n3n2)cn1 (10 µM)
0: all assays above

CC(=O)c1cc(O)ccc1O [2,5-Dihydroxyacetophenone] (10 µM)
0: all assays above

C[C@@H]1O[C@@H](O[C@H]2[C@H](OC(=O)[C@]34CCC(C)(C)C[C@H]3C3=CC[C@@H]5[C@@]6(C)C[C@H](O)[C@H](O[C@@H]7O[C@H](CO)[C@@H](O)[C@H](O)[C@H]7O)C(CO)(CO)[C@@H]6CC[C@@]5(C)[C@]3(C)C[C@H]4O)OC[C@H](O)[C@@H]2O)[C@H](O)[C@H](O)[C@H]1O[C@@H]1OC[C@@H](O)[C@H](O[C@@H]2OC[C@](O)(CO)[C@H]2O)[C@H]1O [Platycodin D] (10 µM)
1: AURKA
0: all other assays above

Three compounds already listed, sorted by heavy-atom count, smallest number first.
Cc1occ2c1C(=O)c1c(O)ccc(O)c1C2 (2.5 µM)
0: all assays above

NC(=O)c1ccc2nc(-c3ccc(C4(N)CCC4)cc3)c(-c3ccccc3)n2n1 (10 µM)
0: all assays above

CC(C)[C@H](CO)Nc1nc(Nc2ccc(C(=O)O)c(Cl)c2)c2ncn(C(C)C)c2n1 [Purvalanol B] (10 µM)
0: all assays above

The list goes on:

O=S(=O)(c1cccc2c(Cl)cccc12)N1CCCNCC1 (10 µM)
0: all assays above

O=C(Nc1nccs1)C(c1cc(F)ccc1O)N1Cc2ccccc2C1=O (stereo not given) (10 µM)
1: BLK
0: all other assays above
